Experimental data: PubChem BioAssay AID1259258 (Sanger Institute, 2017)

- Screen: 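Kinase silencing that boosts cell killing by anchor cancer drugs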 (follow-up of hits)
- Cells: human SW48 colorectal cancer cells
- Knock-down reagent: single siRNA against human genes
- Treatment: anchor drug cetuximab 5 µg/ml, trametinib 10 nM or BYL719 1 µM, or DMSO vehicle alone; assay length not stated
- Read-out: 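Cell viability after siRNA plus DMSO, cetuximab 5 µg/ml, trametinib 10 nM or BYL719 1 µM, scaled to non-targeting pool 2 and replicate-averaged; synergy score weighs combined against single effects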
- Direction: synergy score with trametinib and synergy score with BYL719 and synergy score with cetuximab: higher = stronger synergy, more killing than expected
- Hit rule: 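Hit when the synergy score is above 0.10 for at least one of trametinib, BYL719 or cetuximab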
Here is a random part of 160 deposited reagents. 40 of all reagents (25%) count as active. 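Each row is one of four siRNAs per gene; a gene counts as confirmed only when several of its siRNAs show synergy.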 The numbers tell different reagents against one gene apart. Further read-outs or replicates are left out here. No sequences are given here. Not stated in the record: the amount of reagent, the time to read-out.

Gene | reagent | synergy score with trametinib | synergy score with BYL719 | synergy score with cetuximab | call
KCNH8 | 1 | 0.0059 | -0.065 | -0.0964 | inactive
KCNH8 | 2 | 0.079 | 0.0742 | 0.0769 | inactive
KCNH8 | 3 | 0.142 | -0.014 | -0.0816 | active
KCNH8 | 4 | 0.032 | -0.0251 | 0.0318 | inactive
GRK5 | 1 | -0.0534 | 0.0259 | -0.0362 | inactive
GRK5 | 2 | -0.273 | -0.163 | -0.136 | inactive
GRK5 | 3 | 0.274 | 0.106 | 0.242 | active
GRK5 | 4 | -0.0291 | 0.0309 | 0.0488 | inactive
IRAK1 | 1 | 0.421 | 0.0444 | 0.111 | active
IRAK1 | 2 | -0.183 | -0.0824 | -0.157 | inactive
IRAK1 | 3 | 0.242 | 0.135 | 0.0447 | active
IRAK1 | 4 | 0.0946 | 0.221 | -0.274 | active
PRAG1 | 1 | -0.0326 | -0.127 | -0.126 | inactive
PRAG1 | 2 | 0.132 | 0.246 | 0.0936 | active
PRAG1 | 3 | -0.189 | -0.0707 | -0.21 | inactive
PRAG1 | 4 | -0.082 | -0.0753 | -0.279 | inactive
GUCY2D | 1 | 0.0154 | -0.0575 | -0.136 | inactive
GUCY2D | 2 | 0.0296 | 0.0311 | 0.0321 | inactive
GUCY2D | 3 | 0.0705 | -0.0264 | -0.186 | inactive
GUCY2D | 4 | -0.226 | -0.317 | -0.274 | inactive

Called active, of those listed so far:
Gene | reagent | synergy score with trametinib | synergy score with BYL719 | synergy score with cetuximab | call
KCNH8 | 3 | 0.142 | -0.014 | -0.0816 | active
GRK5 | 3 | 0.274 | 0.106 | 0.242 | active
IRAK1 | 1 | 0.421 | 0.0444 | 0.111 | active
IRAK1 | 3 | 0.242 | 0.135 | 0.0447 | active
IRAK1 | 4 | 0.0946 | 0.221 | -0.274 | active
PRAG1 | 2 | 0.132 | 0.246 | 0.0936 | active
